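Genome-wide siRNA knockdown in TC32 Ewing sarcoma cells, comparing luciferase light from an NR0B1-promoter reporter with a CMV-promoter reporter 48 hours after transfection.
Each siRNA was applied at 20 nM.
A z-score of the log NR0B1-over-CMV signal, less the median of siRNAs with the same seed; more negative means a stronger specific loss of the NR0B1 reporter.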

This is part of the screen; most of the strongest results are not listed here.
Sequences are the guide (antisense) strand, without overhang.

* UACUCGACUCAUGCUGUGC against GOLGA2P11 | seed-corrected z-score 0.2434
* UUCAGAUUUAACCUAAUGU against CXorf40A | seed-corrected z-score 1.084
* UCCGUUUUCCUGGAUCUGC against TRIM67 | seed-corrected z-score 1.405
* UGACAUUACAAGUACAUAG against CHRDL1 | seed-corrected z-score 0.2424
* UCACGAACGAUGGUGAAAC against PROKR2 | seed-corrected z-score -1.231
* UAGGUUUCCAGUAUCUAGC against DCN | seed-corrected z-score -1.152
* UUAUUGCACAAAUCCCACA against SLC52A1 | seed-corrected z-score -1.489
* UACAUGUAUGGAACGGAUG against AEBP2 | seed-corrected z-score -0.9244
* UUCCAUUGCAGAAAAGGGC against RBM12 | seed-corrected z-score -0.3113
* UCACUACUAAUUAAUUGCG against RBAK | seed-corrected z-score 0.2907
* AAUCCUCCAUAAUUCAUCU against TCEB3C | seed-corrected z-score -0.1896
* UUCGAUGAUGUCGUAAUCC against CUEDC1 | seed-corrected z-score -0.4298
* UAAUGCAUUAGUCAGCUUC against DTNA | seed-corrected z-score 0.1311
* UUGGGUGCAUGCCUCUUCC against GUCY2EP | seed-corrected z-score -0.4282
* AUUGUAAACACUUCGGAGC against DQX1 | seed-corrected z-score 0.3992
* UGAUGAGGAACAAACAGCC against OR10H3 | seed-corrected z-score -0.04756
* UCUGUCGUCAAUAAAUUUC against CDYL | seed-corrected z-score -0.3729
* UCUUAUACAGGAAUGCUUC against CENPI | seed-corrected z-score 0.08768
* UAGCGUGUAAAGGUGUUUG against RACK1 | seed-corrected z-score 0.06154
* AAGGUCGUCACUAAACGCC against FAM58BP | seed-corrected z-score 0.5854
* UCACCGUCAAGGGAUGUCU against SNX19P3 | seed-corrected z-score 0.4859
* AAAGACUAAGGAUAAAUCC against SEC22A | seed-corrected z-score -1.038
* AAAGCUGUCAAGCAUAUGC against STK36 | seed-corrected z-score 0.5961
* UGCGGAAGAAGGAUGGACC against HCG2040054 | seed-corrected z-score -1.525
* UUGAGGACCAUGUAAAGGU against ZNF826P | seed-corrected z-score 0.5556
* UUUCUUGUGACCUUGCUUC against C6orf222 | seed-corrected z-score 0.4638
* AAUGGGAAUCGGCUCGCUC against FAM46B | seed-corrected z-score -0.1246
* AUUCUUUCCAGAUCGCCUC against NUCKS1 | seed-corrected z-score -0.1877
* AAGGAUUAUAUGGAAUUAC against PRKCI | seed-corrected z-score 0.2223
* UUGCGGAAUGUGCUAGUGG against RBP2 | seed-corrected z-score -0.2938
* UGCUCUAAUACCGUAGUGG against CDH19 | seed-corrected z-score 0.9461
* UUCUUCUUGCGUCUUGUCC against TEF | seed-corrected z-score -0.8192
* UUCUGUGAGCCUGCUUUCU against NYAP1 | seed-corrected z-score -1.567
* UUUAGAGUUCGAACUGUUU against GOLGA7 | seed-corrected z-score -0.7424
* UUUUCUUUGUGAGUAAUGG against MIR1-1HG | seed-corrected z-score 0.2409
* UAGCGGUCCAGCGUAUUCU against KCND1 | seed-corrected z-score 0.9311
* UUGCUUUCAACUGUUCUGC against LOC642381 | seed-corrected z-score -0.5452
* AAAAGCAAUAUAACCUGCC against SLC35B2 | seed-corrected z-score 0.3962
* AGAGUUUCAAGAUACUCUC against FBXO8 | seed-corrected z-score -0.7291
* UUAUUGAUAGUCCCAUCAC against METRN | seed-corrected z-score 0.5964
* UUAGACUUGACGAAGUUAC against GK2 | seed-corrected z-score -0.1352
* UCAGCGAUUCCAAUGCAGC against NECAB3 | seed-corrected z-score -0.4621

The results are deposited in PubChem (AID1159506; NCATS, 2015).